Results are given in words; binding and its absence hold for the method and conditions named. In cells and extracts the contact can be indirect. Some binding calls cover weakened binding; strength is not graded here. Sequences can lack the tags named with a protein.
T1: mCherry-viperin (human) (UniProt Q8WXG1)
T1 sequence: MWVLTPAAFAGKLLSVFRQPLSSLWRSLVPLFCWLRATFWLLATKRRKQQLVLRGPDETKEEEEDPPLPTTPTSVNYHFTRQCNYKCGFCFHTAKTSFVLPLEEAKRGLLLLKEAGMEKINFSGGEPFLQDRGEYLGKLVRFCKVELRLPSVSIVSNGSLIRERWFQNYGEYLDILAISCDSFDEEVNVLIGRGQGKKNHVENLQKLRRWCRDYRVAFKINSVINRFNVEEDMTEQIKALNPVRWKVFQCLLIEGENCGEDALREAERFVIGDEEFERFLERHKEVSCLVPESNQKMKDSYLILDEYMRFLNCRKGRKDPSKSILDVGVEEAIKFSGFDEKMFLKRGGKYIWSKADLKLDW

T2: viperin-FLAG (human) (UniProt Q8WXG1)
T2 sequence: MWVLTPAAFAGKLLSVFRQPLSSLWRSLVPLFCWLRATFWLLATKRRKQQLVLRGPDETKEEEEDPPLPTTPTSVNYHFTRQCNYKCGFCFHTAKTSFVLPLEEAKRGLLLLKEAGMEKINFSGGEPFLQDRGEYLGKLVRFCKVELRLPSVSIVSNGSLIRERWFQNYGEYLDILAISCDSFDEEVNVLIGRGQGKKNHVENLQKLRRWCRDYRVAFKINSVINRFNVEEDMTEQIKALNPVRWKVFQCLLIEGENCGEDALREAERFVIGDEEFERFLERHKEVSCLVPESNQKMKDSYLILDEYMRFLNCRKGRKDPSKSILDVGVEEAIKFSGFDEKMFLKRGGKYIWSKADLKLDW


Experiments:
[1] = molecular target: T1, mCherry-viperin (human); assay: co-IP; co-transfected 293FT cells; NP-40 lysis buffer (1% NP-40, 150 mM NaCl, 50 mM Tris pH 8.0); IP with rabbit anti-mCherry and Protein A/G agarose at 4°C; blot with anti-Myc
[2] = molecular target: T2, viperin-FLAG (human); assay: proximity ligation; in situ, co-transfected Huh-7 cells; mouse anti-FLAG (viperin) and rabbit anti-Myc (Pex19); control: mouse isotype control with rabbit anti-Myc

Row | binding [1] | binding [2] | Binder
1 | binds | – | Pex19-Myc (pCMV6-PEX19-Myc/FLAG), in 293FT cells (protein, UniProt P40855 1-299) MAAAEEGCSVGAEADRELEELLESALDDFDKAKPSPAPPSTTTAPDASGPQKRSPGDTAKDALFASQEKFFQELFDSELASQATAEFEKAMKELAEEEPHLVEQFQKLSEAAGRVGSDMTSQQEFTSCLKETLSGLAKNATDLQNSSMSEEELTKAMEGLGMDEGDGEGNILPIMQSIMQNLLSKDVLYPSLKEITEKYPEWLQSHRESLPPEQFEKYQEQHSVMCKICEQFEAETPTDSETTQKARFEMVLDLMQQLQDLGHPPKELAGEMPPGLNFDLDALNLSGPPGASGEQCLIM
2 | – | binds | PEX19-Myc (pCMV6-PEX19-Myc/FLAG), in Huh-7 cells (protein, UniProt P40855 1-299) MAAAEEGCSVGAEADRELEELLESALDDFDKAKPSPAPPSTTTAPDASGPQKRSPGDTAKDALFASQEKFFQELFDSELASQATAEFEKAMKELAEEEPHLVEQFQKLSEAAGRVGSDMTSQQEFTSCLKETLSGLAKNATDLQNSSMSEEELTKAMEGLGMDEGDGEGNILPIMQSIMQNLLSKDVLYPSLKEITEKYPEWLQSHRESLPPEQFEKYQEQHSVMCKICEQFEAETPTDSETTQKARFEMVLDLMQQLQDLGHPPKELAGEMPPGLNFDLDALNLSGPPGASGEQCLIM

Reference: publication PMC8200297
